What was measured:
Type in all cases: cell-based
[1] = tested on: HCC-2998; assay: NCI DTP in-vitro dose response, Colon Cancer
[2] = tested on: HT29; assay: NCI DTP in-vitro dose response, Colon Cancer
[3] = tested on: KM12; assay: NCI DTP in-vitro dose response, Colon Cancer
[4] = tested on: HCT-15; assay: NCI DTP in-vitro dose response, Colon Cancer
[5] = tested on: SNB-75; assay: NCI DTP in-vitro dose response, CNS Cancer
[6] = tested on: U251; assay: NCI DTP in-vitro dose response, CNS Cancer
[7] = tested on: SK-MEL-28; assay: NCI DTP in-vitro dose response, Melanoma
[8] = tested on: MALME-3M; assay: NCI DTP in-vitro dose response, Melanoma
[9] = tested on: UACC-257; assay: NCI DTP in-vitro dose response, Melanoma
[10] = tested on: UACC-62; assay: NCI DTP in-vitro dose response, Melanoma
[11] = tested on: OVCAR-5; assay: NCI DTP in-vitro dose response, Ovarian Cancer
[12] = tested on: OVCAR-4; assay: NCI DTP in-vitro dose response, Ovarian Cancer
[13] = tested on: A498; assay: NCI DTP in-vitro dose response, Renal Cancer
[14] = tested on: MDA-MB-231/ATCC; assay: NCI DTP in-vitro dose response, Breast Cancer
[15] = tested on: BT-549; assay: NCI DTP in-vitro dose response, Breast Cancer

What does the source list for `CCc1nc2ccc3c(c2[nH]1)C(=O)c1ccccc1C3=O` [TABLE 4-3]?
Mean Optical Densities ([1]; Log10 Concentration −4.0): 0.988; Mean Optical Densities ([1]; Log10 Concentration −5.0): 1.527; Mean Optical Densities ([1]; Log10 Concentration −6.0): 1.983; Mean Optical Densities ([1]; Log10 Concentration −7.0): 2.044; Mean Optical Densities ([1]; Log10 Concentration −8.0): 1.963; Mean Optical Densities ([2]; Log10 Concentration −4.0): 0.241; Mean Optical Densities ([2]; Log10 Concentration −5.0): 0.557; Mean Optical Densities ([2]; Log10 Concentration −6.0): 0.893; Mean Optical Densities ([2]; Log10 Concentration −7.0): 0.998; Mean Optical Densities ([2]; Log10 Concentration −8.0): 0.951; Mean Optical Densities ([3]; Log10 Concentration −4.0): 0.373; Mean Optical Densities ([3]; Log10 Concentration −5.0): 0.625; Mean Optical Densities ([3]; Log10 Concentration −6.0): 1.003; Mean Optical Densities ([3]; Log10 Concentration −7.0): 1.040; Mean Optical Densities ([3]; Log10 Concentration −8.0): 1.072; Mean Optical Densities ([4]; Log10 Concentration −4.0): 0.348; Mean Optical Densities ([4]; Log10 Concentration −5.0): 0.588; Mean Optical Densities ([4]; Log10 Concentration −6.0): 1.121; Mean Optical Densities ([4]; Log10 Concentration −7.0): 1.422; Mean Optical Densities ([4]; Log10 Concentration −8.0): 1.391

For `CCc1nc2ccc3c(c2[nH]1)C(=O)c1ccccc1C3=O` [TABLE 4-4], which “Mean Optical Densities” value ([5]; Log10 Concentration −4.0) is on record?
The value was 0.770.

And the “Mean Optical Densities” value ([5]; Log10 Concentration −5.0)?
The value was 0.916.

What about the “Mean Optical Densities” value ([5]; Log10 Concentration −6.0) of the same molecule?
The value was 0.965.

What about the “Mean Optical Densities” value ([5]; Log10 Concentration −7.0) of the same molecule?
The value was 1.070.

What about the “Mean Optical Densities” value ([5]; Log10 Concentration −8.0) of the same molecule?
Its value is 1.068.

And the “Mean Optical Densities” value ([6]; Log10 Concentration −4.0)?
The value was 0.597.

What about the “Mean Optical Densities” value ([6]; Log10 Concentration −5.0) of the same molecule?
The value was 0.854.

What about the “Mean Optical Densities” value ([6]; Log10 Concentration −6.0) of the same molecule?
Its value is 1.260.

What about the “Mean Optical Densities” value ([6]; Log10 Concentration −7.0) of the same molecule?
The value was 1.393.

And the “Mean Optical Densities” value ([6]; Log10 Concentration −8.0)?
The value was 1.369.

How did the “Mean Optical Densities” value ([7]; Log10 Concentration −4.0) turn out when `CCc1nc2ccc3c(c2[nH]1)C(=O)c1ccccc1C3=O` [TABLE 4-5] was run?
The value was 0.211.

And the “Mean Optical Densities” value ([7]; Log10 Concentration −5.0)?
Its value is 0.537.

What about the “Mean Optical Densities” value ([7]; Log10 Concentration −6.0) of the same molecule?
The value was 0.730.

What about the “Mean Optical Densities” value ([7]; Log10 Concentration −7.0) of the same molecule?
The value was 0.762.

And the “Mean Optical Densities” value ([7]; Log10 Concentration −8.0)?
The value was 0.794.

What about the “Mean Optical Densities” value ([8]; Log10 Concentration −4.0) of the same molecule?
The value was 0.683.

What about the “Mean Optical Densities” value ([8]; Log10 Concentration −5.0) of the same molecule?
The value was 0.835.

And the “Mean Optical Densities” value ([8]; Log10 Concentration −6.0)?
The value was 1.153.

And the “Mean Optical Densities” value ([8]; Log10 Concentration −7.0)?
The value was 1.161.

What about the “Mean Optical Densities” value ([8]; Log10 Concentration −8.0) of the same molecule?
Its value is 1.174.

What about the “Mean Optical Densities” value ([9]; Log10 Concentration −4.0) of the same molecule?
Its value is 0.506.

What about the “Mean Optical Densities” value ([9]; Log10 Concentration −5.0) of the same molecule?
Its value is 0.694.

What about the “Mean Optical Densities” value ([9]; Log10 Concentration −6.0) of the same molecule?
The value was 0.808.

And the “Mean Optical Densities” value ([9]; Log10 Concentration −7.0)?
Its value is 0.761.

What about the “Mean Optical Densities” value ([9]; Log10 Concentration −8.0) of the same molecule?
The value was 0.763.

And the “Mean Optical Densities” value ([10]; Log10 Concentration −4.0)?
Its value is 1.015.

And the “Mean Optical Densities” value ([10]; Log10 Concentration −5.0)?
The value was 1.231.

What about the “Mean Optical Densities” value ([10]; Log10 Concentration −6.0) of the same molecule?
Its value is 1.874.

And the “Mean Optical Densities” value ([10]; Log10 Concentration −7.0)?
Its value is 1.978.

And the “Mean Optical Densities” value ([10]; Log10 Concentration −8.0)?
Its value is 1.844.

With `CCc1nc2ccc3c(c2[nH]1)C(=O)c1ccccc1C3=O` [TABLE 4-6] as the molecule, how does the “Mean Optical Densities” value ([11]; Log10 Concentration −4.0) read?
Its value is 0.637.

What about the “Mean Optical Densities” value ([11]; Log10 Concentration −5.0) of the same molecule?
Its value is 0.852.

And the “Mean Optical Densities” value ([11]; Log10 Concentration −6.0)?
Its value is 0.900.

What about the “Mean Optical Densities” value ([11]; Log10 Concentration −7.0) of the same molecule?
The value was 0.884.

What about the “Mean Optical Densities” value ([11]; Log10 Concentration −8.0) of the same molecule?
The value was 0.865.

What about the “Mean Optical Densities” value ([12]; Log10 Concentration −4.0) of the same molecule?
Its value is 0.745.

And the “Mean Optical Densities” value ([12]; Log10 Concentration −5.0)?
The value was 0.999.

And the “Mean Optical Densities” value ([12]; Log10 Concentration −6.0)?
The value was 1.535.

What about the “Mean Optical Densities” value ([12]; Log10 Concentration −7.0) of the same molecule?
Its value is 1.694.

What about the “Mean Optical Densities” value ([12]; Log10 Concentration −8.0) of the same molecule?
The value was 1.719.

What does the source list for `CCc1nc2ccc3c(c2[nH]1)C(=O)c1ccccc1C3=O` [TABLE 4-7]?
Mean Optical Densities ([13]; Log10 Concentration −4.0): 0.453; Mean Optical Densities ([13]; Log10 Concentration −5.0): 0.793; Mean Optical Densities ([13]; Log10 Concentration −6.0): 1.065; Mean Optical Densities ([13]; Log10 Concentration −7.0): 1.221; Mean Optical Densities ([13]; Log10 Concentration −8.0): 1.202

With `CCc1nc2ccc3c(c2[nH]1)C(=O)c1ccccc1C3=O` [TABLE 4-9] as the molecule, how does the “Mean Optical Densities” value ([14]; Log10 Concentration −4.0) read?
Its value is 0.700.

What about the “Mean Optical Densities” value ([14]; Log10 Concentration −5.0) of the same molecule?
Its value is 0.820.

And the “Mean Optical Densities” value ([14]; Log10 Concentration −6.0)?
Its value is 1.063.

What about the “Mean Optical Densities” value ([14]; Log10 Concentration −7.0) of the same molecule?
Its value is 1.097.

And the “Mean Optical Densities” value ([14]; Log10 Concentration −8.0)?
The value was 1.121.

What about the “Mean Optical Densities” value ([15]; Log10 Concentration −4.0) of the same molecule?
The value was 1.166.

What about the “Mean Optical Densities” value ([15]; Log10 Concentration −5.0) of the same molecule?
Its value is 1.606.

And the “Mean Optical Densities” value ([15]; Log10 Concentration −6.0)?
The value was 1.951.

What about the “Mean Optical Densities” value ([15]; Log10 Concentration −7.0) of the same molecule?
Its value is 2.006.

And the “Mean Optical Densities” value ([15]; Log10 Concentration −8.0)?
The value was 2.009.

Source: US8445492B2, “Method for inhibiting growth of cancer cells and cell telomere and diseases of cell proliferation by using heteroannelated anthraquinone derivative compounds” (National Defense Medical Center, priority 2008, dated 2013)
